# Reference: patent US20100062978A1
# The chains behind the UniProt entries cited, without tags or fusion partners.
# UniProt P28482: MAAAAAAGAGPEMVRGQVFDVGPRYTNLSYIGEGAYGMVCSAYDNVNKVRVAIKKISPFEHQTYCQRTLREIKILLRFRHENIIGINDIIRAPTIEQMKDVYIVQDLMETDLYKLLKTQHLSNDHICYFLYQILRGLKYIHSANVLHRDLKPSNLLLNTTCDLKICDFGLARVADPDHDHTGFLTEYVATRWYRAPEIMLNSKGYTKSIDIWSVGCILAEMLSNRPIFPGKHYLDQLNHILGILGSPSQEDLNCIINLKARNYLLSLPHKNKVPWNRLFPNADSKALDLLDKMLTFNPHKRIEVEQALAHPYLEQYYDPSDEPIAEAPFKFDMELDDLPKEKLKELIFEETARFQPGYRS
# These are yes or no findings as the source states them, for the method shown. Binding seen in cells or lysates may run through a third protein. Some entries that bind do so weakly or less than the wild type. Where a sequence is shown, tags or fusion partners need not be part of it.
# Biological target: T1, 1-252 variant of human SNT-2, C-terminal FLAG-tag (human) (UniProt O43559)
# T1 sequence: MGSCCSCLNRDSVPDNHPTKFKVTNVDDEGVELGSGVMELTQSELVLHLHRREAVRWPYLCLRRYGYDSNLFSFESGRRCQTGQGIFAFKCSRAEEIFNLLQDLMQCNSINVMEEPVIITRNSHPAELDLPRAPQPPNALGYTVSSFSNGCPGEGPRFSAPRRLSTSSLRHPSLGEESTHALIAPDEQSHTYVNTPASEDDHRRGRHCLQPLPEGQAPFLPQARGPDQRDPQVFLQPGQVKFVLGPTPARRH
# Test: GST pull-down from HEK293 lysate on Glutathione Sepharose, immunoblot
substance,measurement,value
"GST-ERK2 fusion protein (glutathione S-transferase fused with human ERK2, from pGEX-4T-1) (from UniProt P28482 1-360)",binding,binds
